According to publication PMC12987569:
These are yes or no findings as the source states them, for the method shown. Binding seen in cells or lysates may run through a third protein. Some binding calls cover weakened binding; strength is not graded here.

Target: T1, PLIN3 (human (in human CRC cells)) (UniProt O60664)
T1 sequence: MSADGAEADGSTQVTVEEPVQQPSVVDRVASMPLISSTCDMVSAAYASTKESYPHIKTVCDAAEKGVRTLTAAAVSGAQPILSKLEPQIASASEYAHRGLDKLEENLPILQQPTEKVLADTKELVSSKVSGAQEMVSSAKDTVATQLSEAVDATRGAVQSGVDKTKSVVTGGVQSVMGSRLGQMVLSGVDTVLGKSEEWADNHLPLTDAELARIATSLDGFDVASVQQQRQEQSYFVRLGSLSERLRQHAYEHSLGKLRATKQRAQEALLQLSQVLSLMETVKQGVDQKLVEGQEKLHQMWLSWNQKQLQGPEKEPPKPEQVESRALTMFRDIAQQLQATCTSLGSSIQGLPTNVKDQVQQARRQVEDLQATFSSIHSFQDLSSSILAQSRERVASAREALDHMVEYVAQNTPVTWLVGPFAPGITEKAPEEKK
Experiment: co-IP; co-immunoprecipitation from CRC cells treated with oleic acid (OA); which protein was precipitated is not told

binding: binds
B1: YTH domain-containing family protein 3 (protein, UniProt Q7Z739 1-585)
chain: MSATSVDQRPKGQGNKVSVQNGSIHQKDAVNDDDFEPYLSSQTNQSNSYPPMSDPYMPSYYAPSIGFPYSLGEAAWSTAGDQPMPYLTTYGQMSNGEHHYIPDGVFSQPGALGNTPPFLGQHGFNFFPGNADFSTWGTSGSQGQSTQSSAYSSSYGYPPSSLGRAITDGQAGFGNDTLSKVPGISSIEQGMTGLKIGGDLTAAVTKTVGTALSSSGMTSIATNSVPPVSSAAPKPTSWAAIARKPAKPQPKLKPKGNVGIGGSAVPPPPIKHNMNIGTWDEKGSVVKAPPTQPVLPPQTIIQQPQPLIQPPPLVQSQLPQQQPQPPQPQQQQGPQPQAQPHQVQPQQQQLQNRWVAPRNRGAGFNQNNGAGSENFGLGVVPVSASPSSVEVHPVLEKLKAINNYNPKDFDWNLKNGRVFIIKSYSEDDIHRSIKYSIWCSTEHGNKRLDAAYRSLNGKGPLYLLFSVNGSGHFCGVAEMKSVVDYNAYAGVWSQDKWKGKFEVKWIFVKDVPNNQLRHIRLENNDNKPVTNSRDTQEVPLEKAKQVLKIIATFKHTTSIFDDFAHYEKRQEEEEAMRRERNRNKQ
